# Laboratory results taken from PubChem BioAssay AID2685 (National Center for Advancing Translational Sciences (NCATS), 2010).
# About 2,100 (0.66%) of roughly 320,000 compounds were called active. Inconclusive results, whose numbers are uncertain, are shown with a selection of clear calls. Calls come from the whole dose curve; as a rule, active = well fitted inhibition curve with a large enough effect in the signal ratio, with a control signal flat (not every such curve was filed as active); inconclusive = small, poorly fitted or top-dose-only effect, or effect the other way, or a change in a side signal; inactive = flat fitted curve, though single readings scatter; the % refers to the signal ratio. Potencies beside an inconclusive call are fits to weak or partial responses and may not hold up.
# Assay: qHTS Assay for Lipid Storage Modulators in Drosophila S3 Cells
# Details: BODIPY lipid droplet fluorescence, 18-24 h, cells fed with added oleic acid; lipid storage change, negative = inhibition: at 46.1 µM (top of the series) unless noted
# Summary of the method: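 Drosophila S3 cells loaded with oleic acid (400 uM, as added) and compounds at several concentrations; lipid droplets imaged by 488-nm laser-scanning cytometry, 500–530 nm intensity and object ratio to cell channel. Percent activity normalized to 20 uM Triacsin C.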
# % is set by controls: 0 for no effect and ±100 for the full control effect; potency is the fitted concentration of half-maximal effect.
Compound,"lipid storage change, negative = inhibition",Potency
O=C(COc1ccccc1Cl)N(Cc1cccs1)C1CCS(=O)(=O)C1 (stereo not given),inconclusive: 14.7%,–
COCC(=O)OC/C(O)=C(\C#N)c1nc2ccccc2[nH]1,inconclusive: -21.1%,–
CCCC/C(C)=N/NC(=O)Nc1ccccc1,inconclusive: 8.08%,–
CC1CCCC(NS(=O)(=O)c2cc3c(cc2Cl)NC(=O)CO3)C1C (stereo not given),inconclusive: -12.1%,–
Cc1c(N(C)C)c(=O)n(-c2ccccc2)n1C,inconclusive: 11.6%,–
COCCN(Cc1cccs1)S(=O)(=O)c1ccc(-c2ccc(=O)[nH]n2)s1,inconclusive: -100%,–
O=C(Cc1cc(=O)oc2cc(O)ccc12)NC(Cc1ccc(Cl)cc1)C(=O)O (stereo not given),inconclusive: -8.03%,–
COc1ccc(C2=NN(CN3C(=O)C(=O)c4ccccc43)C(c3cccc([N+](=O)[O-])c3)C2)cc1 (stereo not given),inconclusive: 20.7%,–
N#Cc1ccc(C2=CC(=O)C[C@H](c3ccc4c(c3)OCO4)C2)cc1,inconclusive: 17.7%,–
COc1ccccc1NS(=O)(=O)c1cc(C(=O)N2CCCC2)ccc1F,–,"inconclusive: 0.82 µM [falling, full curve, poor fit]"
CC12CN3CC(C)(CN(C1)C3c1ccc3ccccc3c1O)C2=O (stereo not given),–,"inconclusive: 7.31 µM [falling, partial curve, poor fit]"
O=C(C1CCC(=O)N(C2CCCC2)C1)N1CCN(Cc2cccc(F)c2)CC1 (stereo not given),–,"inconclusive: 6.51 µM [falling, single point]"
CCOC(=O)CC(=O)Nc1nc2ccccc2s1,inconclusive: 32.4%,–
CCCc1nnc(SCC(=O)N2C(C)CCCC2C)n1CCCOC (stereo not given),inconclusive: 2.68%,–
CCOc1ccc2[nH]c(=O)c(C(c3nnnn3C3CCCCC3)N3CCN(CC)CC3)cc2c1 (stereo not given),inconclusive: 8.3%,–
Cc1cc(NC(=O)c2cccc(Cl)c2)n[nH]1,–,"inconclusive: 8.2 µM [activator, partial curve, poor fit]"
COc1ccc(C(=O)COC(=O)c2ccco2)cc1,inconclusive: -18.4%,–
Clc1ccccc1OCCCCN1CCCCC1,inconclusive: -9.18%,–
CC(NCc1ccc(S(N)(=O)=O)cc1)C(=O)Nc1cc([N+](=O)[O-])ccc1Cl (stereo not given),inconclusive: 42.3%,–
CN(C)Cc1c(O)ccc2c(=O)c(-c3ccccc3Cl)coc12,inconclusive: 7.69%,–
CCCCc1nc2ccccc2c(=O)n1NC(=O)c1c(O)c2cccc3c2n(c1=O)CCC3,–,"inconclusive: 0.0046 µM [falling, full curve, poor fit]"
O=C(Nc1ccc(OC(F)(F)F)cc1)Oc1ccccc1N1CCOCC1,inconclusive: -29.2%,–
Cc1cccc(N2CC(C(=O)Nc3cccc(S(=O)(=O)N4CCCCC4)c3)CC2=O)c1C (stereo not given),inconclusive: 23.9%,–
Cn1c(C(=O)O)cnc1Sc1ncc(C(F)(F)F)cc1Cl,inconclusive: 26%,–
CC(Oc1ccc(F)cc1)C(=O)Nc1ccc(N2CCOCC2)cc1N1CCOCC1 (stereo not given),inconclusive: 20.3%,–

Compound,"lipid storage change, negative = inhibition",Potency
O=C(Nc1ccc(Nc2ccccc2)cc1)Nc1ccccc1Cl,inconclusive: 0.495%,–
CCOC(=O)C(C(=O)OCC)C(Nc1ccc(Br)cc1)c1ccccc1 (stereo not given),–,"inconclusive: 18.4 µM [falling, partial curve, poor fit]"
O=C(c1cnn(C(=O)c2ccc(O)cc2)c1)c1ccccc1O,inconclusive: -1.37%,–
Cc1c(N=Cc2ccncc2)c(=O)n(-c2ccccc2)n1C,–,"inconclusive: 5.17 µM [falling, single point]"
CCOC(=O)C(C)Oc1ccc(NC(=O)C(Cl)Cl)cc1 (stereo not given),inconclusive: -10.5%,–
CC(Oc1cccc(NC(=O)c2cccs2)c1)C(=O)c1ccccc1 (stereo not given),–,"inconclusive: 29.1 µM [cytotoxic, single point]"
NS(=O)(=O)c1ccc(CNC(=O)C(c2ccccc2)c2ccccc2)cc1,inconclusive: 11.4%,–
O=C(COC(=O)C12CC3CC(CC(O)(C3)C1)C2)Nc1cccc(Br)c1,inconclusive,–
COc1ccc(-c2cc(C(=O)NCCN3CCOCC3)c3ccccc3n2)cc1OC,inconclusive: 58.3%,–
O=C(COc1ccc(Cl)cc1)NCc1ccncc1,–,"inconclusive: 4.11 µM [cytotoxic, partial curve]"
COc1ccc(N2CCN(C(=O)C3CCN(C(=O)c4cccc(Cl)c4)CC3)CC2)cc1,inconclusive: 149%,–
COc1cccc(/C(C)=N/N=C(\C)c2cccc(OC)c2)c1,inconclusive: -80.4%,–
O=C(CCS(=O)(=O)c1ccccc1)Nc1ncc([N+](=O)[O-])s1,–,active: 4.61 µM
COc1ccc(C2N(c3ccccn3)C(=O)C3CCCN32)c(OC)c1 (stereo not given),inconclusive: -11.7%,–
CCN(c1ccccc1)S(=O)(=O)c1ccc(C(=O)N(CCCN(C)C)c2nc3cc4c(cc3s2)OCO4)cc1,–,"inconclusive: 6.51 µM [activator, single point]"
Cc1cnc(C(=O)OCC(=O)N2CCN(C(=O)c3ccco3)CC2)cn1,inconclusive: -49%,–
O=C(CN1C(=O)NC2(CCc3ccccc32)C1=O)Nc1ccc(Br)cc1F (stereo not given),inconclusive: 8.75%,–
CCc1c(C)nc2ncnn2c1Nc1ccc(C#N)c(Cl)c1,inconclusive: -51.3%,–
Fc1ccccc1CNC(=S)NCc1ccc(Cl)cc1,inconclusive: -31.1%,–
COc1cccc(NC(=O)CN2C(=O)CSc3nc(C)cc(C)c32)c1,–,"inconclusive: 6.51 µM [activator, full curve]"
CCOc1ccc2nc(N3CCCC(C(=O)NC4CCCC4)C3)sc2c1 (stereo not given),inconclusive: 58.7%,–
O=c1c(-c2ccc(O)cc2)coc2cc(OC3OC(CO)C(O)C(O)C3O)ccc12 (stereo not given),inconclusive: 8.29%,–
CC(C)Oc1ccc(S(=O)(=O)N2CCOCC2)cc1NC(=O)c1cc([N+](=O)[O-])ccc1N1CCOCC1,inconclusive: 0.868%,–
Cc1c(C(=O)NC(C)C)oc2c1-c1[nH]ncc1CC2,inconclusive: -36.1%,–
Cc1ccccc1OCC(=O)N(Cc1ccc(N(C)C)cc1)C1CCS(=O)(=O)C1 (stereo not given),inconclusive: 15%,–

# Single records, from the list above. Values in the order: lipid storage change, negative = inhibition | Potency
# `O=c1c(-c2ccc(O)cc2)coc2cc(OC3OC(CO)C(O)C(O)C3O)ccc12` (stereo not given) is listed with inconclusive: 8.29% | –
# `O=C(CCS(=O)(=O)c1ccccc1)Nc1ncc([N+](=O)[O-])s1` is listed with – | active: 4.61 µM
